Measured values taken from patent US4372949A, “Treatment of cancer with carcinostatic and immunostimulating agent containing lysophospholipid and phospholipid” (Toyama Chemical Co., Ltd., priority 1979, dated 1983).
The name of at least one read-out is uncertain.

How the values were obtained:
Hela S-3 strain = assay: Minimum inhibitory concentration of cancerous cells (MIC), Hela S-3; assay type: cell-based; settings: 96 hrs, growth inhibited more than 50%
[1] = system: Ehrlich's ascites tumor cells; assay: Minimum inhibitory concentration of cancerous cells (MIC), Ehrlich; assay type: cell-based; settings: 96 hrs, growth inhibited more than 50%

L-lysolecithin
MIC (Hela S-3 strain): 156 µg/mL | MIC [1]: 156 µg/mL
